Data from the supplement of paper PMC12889115.
The other results are listed elsewhere or left out. These are raw signals, not scaled to a control.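 In the initial screen, polymyxin B was used at a concentration that permeabilizes Salmonella's outer membrane but not its inner membrane. Maximum growth was set by DMSO wells with or without polymyxin B. Since plates varied, data were ranked per plate, and compounds giving the lowest OD600 advanced as hits.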

System: Salmonella enterica serovar Typhimurium SL1344
Assay: bacterial growth OD600 after 18 h with compound and polymyxin B; higher = more bacterial growth (less inhibition)
Conditions: 50 µM, Mueller-Hinton broth

Compound: O=C1O[C@@H]2CN(Cc3cccc4cnccc34)C[C@@H]2N1CCc1ccc(F)cc1
- bacterial growth OD600 (polymyxin B 0.75 µg/mL): 0.843

Compound: CCOC(=O)CNC(=O)N1CCCC(CNS(=O)(=O)Cc2ccccc2)C1 (stereo not given)
- bacterial growth OD600 (polymyxin B 1 µg/mL): 0.851

Compound: CC(C)c1nccn1Cc1cc(C(=O)NCc2nc3ccccc3o2)n[nH]1
- bacterial growth OD600 (polymyxin B 1 µg/mL): 1.18

Compound: COc1ccc(CCN2CC(C(=O)N3CCC(c4ccncc4)CC3)CCC2=O)cc1 (stereo not given)
- bacterial growth OD600 (polymyxin B 1 µg/mL): 0.842

Compound: CCn1nc(C)cc1C(=O)NCc1cccnc1N(C)C
- bacterial growth OD600 (polymyxin B 1 µg/mL): 0.911

Compound: COc1ccccc1CC(=O)Nc1cnn(CC(=O)NCC2(c3ccccc3)CCCC2)c1
- bacterial growth OD600 (polymyxin B 0.75 µg/mL): 0.691

Compound: Cc1cccnc1CN1CCN(C(=O)C2CCN(c3nc(C)c4cc(C(C)C)ccc4n3)CC2)CC1
- bacterial growth OD600 (polymyxin B 0.75 µg/mL): 0.8

Compound: OC1(Cc2cc(-c3ccccc3)no2)CCN(Cc2cc(F)ccc2F)CC1
- bacterial growth OD600 (polymyxin B 1 µg/mL): 0.842

Compound: CN(c1ncccc1CNC(=O)C1CCOC1)C1CCCCC1 (stereo not given)
- bacterial growth OD600 (polymyxin B 1 µg/mL): 0.906

Compound: CC(=O)N1CCN(C(=O)CC(c2ccccc2)c2ccccc2Cl)CC1 (stereo not given)
- bacterial growth OD600 (polymyxin B 1 µg/mL): 0.784

Compound: O=C(CCN1CCCO1)NC1CCCN(c2ccc(C(F)(F)F)cn2)C1 (stereo not given)
- bacterial growth OD600 (polymyxin B 1 µg/mL): 0.928

Compound: Cc1cc(C(=O)N2CCC(C3CCN(CC(C)C)CC3)C2)n(C)n1 (stereo not given)
- bacterial growth OD600 (polymyxin B 0.75 µg/mL): 0.821

Compound: CCN1CCN(C2(C(=O)NC3CCc4ccccc43)Cc3ccccc3C2)CC1 (stereo not given)
- bacterial growth OD600 (polymyxin B 0.75 µg/mL): 0.823

Compound: O[C@H]1CN(Cc2ccc(-c3ccccc3)cc2)C[C@@H]1N1CCN(c2ccccn2)CC1
- bacterial growth OD600 (polymyxin B 1 µg/mL): 1.18

Compound: CCCC(=O)NC1CC(=O)N(Cc2ccccc2C(F)(F)F)C1 (stereo not given)
- bacterial growth OD600 (polymyxin B 1 µg/mL): 0.867

Compound: CCOc1ccccc1[C@@H]1C[C@H]2CN(C3Cc4ccccc4C3)C(=O)[C@]23CCCN13
- bacterial growth OD600 (polymyxin B 0.75 µg/mL): 0.002

Compound: COc1ccccc1-c1cc2c(c(OC)c1)OCCN(C(=O)c1ccco1)C2
- bacterial growth OD600 (polymyxin B 0.75 µg/mL): 0.785

Compound: CCOC(=O)N1CCN(Cc2nc(-c3cccc(C(F)(F)F)c3)oc2C)CC1
- bacterial growth OD600 (polymyxin B 1 µg/mL): 0.916

Compound: Cc1ncc2c(c1CNS(=O)(=O)c1cccs1)CCN(C(=O)CC1CCCC1)C2
- bacterial growth OD600 (polymyxin B 0.75 µg/mL): 0.845

Compound: CC(C)CNC(=O)c1cn(C(C)C)cc(C(=O)N(C)Cc2cccc3ccccc23)c1=O
- bacterial growth OD600 (polymyxin B 0.75 µg/mL): 0.725
